Measured values as given in US20210309735A1 (published 2021).
Results are given in words; binding and its absence hold for the method and conditions named. Some binding calls cover weakened binding; strength is not graded here.

Legend:
[1] = molecular target: cynomolgus monkey IL17A (cynomolgus monkey); experiment: ELISA, monkey IL-17A coated
human IL-17A [2] = molecular target: T1, human IL-17A (human, UniProt Q16552 20-155, limits assumed); experiment: BLI (Octet)
T1 construct: Bought from R&D Systems; also called IL-17 antigen (human IL17A)
T1 sequence (looked up): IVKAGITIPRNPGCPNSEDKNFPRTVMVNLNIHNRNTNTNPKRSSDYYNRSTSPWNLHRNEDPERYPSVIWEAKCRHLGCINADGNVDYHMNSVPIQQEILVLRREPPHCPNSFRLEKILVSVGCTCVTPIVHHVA

human IL-17A [3] = molecular target: T1, human IL-17A; experiment: ELISA, human IL-17A coated
human IL-17A (human) [4] = molecular target: T2, human IL-17A (human) (UniProt Q16552); experiment: BLI (Octet)
T2 sequence (looked up): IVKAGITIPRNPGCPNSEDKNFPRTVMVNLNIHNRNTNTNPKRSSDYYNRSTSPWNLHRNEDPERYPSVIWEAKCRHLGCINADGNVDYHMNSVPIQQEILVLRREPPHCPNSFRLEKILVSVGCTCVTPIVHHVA

human IL-17A (human) [5] = molecular target: T2, human IL-17A (human); experiment: ELISA, human IL-17A coated

Measured: binding

B1: PP10759 (antibody, human IgG4 S228P, kappa, V domains shown)
VH: EVQLVESGGGLVQPGGSLKLSCVASGFTFSTYGMSWVRQTPDKRLELVAIINHNGGSTFYPDSVKGRFTVSRDNAKNTLHLQMSSLKSEDTAMYYCARDPRHDGYFFDYWGQGTTLTVSS
VL: DIQMTQSSPSFSVSLGDRVTITCKASEDIYDRLAWYQQKPGNAPRLLISGATSLETGIPSRFSGSRSGKDYTLDINSLQTEDAATYYCQQYWSVPWTFGGGTKLEIKR
notes: expressed in HEK293; also called chimeric antibody PP10759; chimeric parental antibody
binds: [1] | human IL-17A [2] | human IL-17A [3]

B2: PP10761 (antibody, human IgG4 S228P, kappa, V domains shown)
VH: EVQLVESGGGLVQPGGSLRLSCAASGFTFSTYGMSWVRQAPGKGLELVSIINHNGGSTFYPDSVKGRFTISRDNSKNTLYLQMNSLRAEDTAVYYCARDPRHDGYFFDYWGQGTLVTVSS
VL: DIQMTQSPSSLSASVGDRVTITCQASEDIYDRLAWYQQKPGKAPKLLISGATSLETGVPSRFSGSGSGKDYTFTISSLQPEDIATYYCQQYWSVPWTFGGGTKVEIKR
notes: Humanized, human IgG4/kappa; also called VH6665/VL6666
binds: [1] | human IL-17A [2] | human IL-17A [3]

B3: PP10760 (antibody, human IgG4 S228P, kappa, V domains shown)
VH: EVQLVESGGGLVQPGGSLRLSCAASGFTFSTYGMSWVRQAPGKGLELVSIINHNGGSTFYPDSVKGRFTISRDNSKNTLYLQMNSLRAEDTAVYYCARDPRHDGYFFDYWGQGTLVTVSS
VL: DIQMTQSPSSLSASVGDRVTITCQASEDIYDRLAWYQQKPGKAPKLLISGATSLETGVPSRFSGSGSGTDYTFTISSLQPEDIATYYCQQYWSVPWTFGGGTKVEIKR
notes: Humanized, human IgG4/kappa; also called VH6665/VL6665
binds: [1] | human IL-17A (human) [4] | human IL-17A (human) [5]

B4: PP10762 (antibody, human IgG4 S228P, kappa, V domains shown)
VH: EVQLVESGGGLVQPGGSLRLSCAASGFTFSTYGMSWVRQAPGKGLELVSIINHNGGSTFYPDSVKGRFTISRDNSKNTLYLQMNSLRAEDTAVYYCARDPRHDGYFFDYWGQGTLVTVSS
VL: DIQMTQSPSSLSASVGDRVTITCRASEDIYDRLAWYQQKPGKAPNLLVSGATSLESGVPSRFSGSGSGKDYTLTISSLQPEDFATYYCQQYWSVPWTFGGGTKVEIKR
notes: Humanized, human IgG4/kappa; also called VH6665/VL6667
binds: [1] | human IL-17A [2] | human IL-17A [3]

B5: PP10763 (antibody, human IgG4 S228P, kappa, V domains shown)
VH: EVQLVESGGGLVQPGGSLRLSCAASGFTFSTYGMSWVRQAPGKGLELVAIINHNGGSTFYPDSVKGRFTVSRDNSKNTLYLQMNSLRAEDTAVYYCARDPRHDGYFFDYWGQGTLVTVSS
VL: DIQMTQSPSSLSASVGDRVTITCQASEDIYDRLAWYQQKPGKAPKLLISGATSLETGVPSRFSGSGSGTDYTFTISSLQPEDIATYYCQQYWSVPWTFGGGTKVEIKR
notes: Humanized, human IgG4/kappa; also called VH6666/VL6665
binds: [1] | human IL-17A [2] | human IL-17A [3]

B6: PP10764 (antibody, human IgG4 S228P, kappa, V domains shown)
VH: EVQLVESGGGLVQPGGSLRLSCAASGFTFSTYGMSWVRQAPGKGLELVAIINHNGGSTFYPDSVKGRFTVSRDNSKNTLYLQMNSLRAEDTAVYYCARDPRHDGYFFDYWGQGTLVTVSS
VL: DIQMTQSPSSLSASVGDRVTITCQASEDIYDRLAWYQQKPGKAPKLLISGATSLETGVPSRFSGSGSGKDYTFTISSLQPEDIATYYCQQYWSVPWTFGGGTKVEIKR
notes: Humanized, human IgG4/kappa; also called VH6666/VL6666
binds: [1] | human IL-17A [2] | human IL-17A [3]

B7: PP10765 (antibody, human IgG4 S228P, kappa, V domains shown)
VH: EVQLVESGGGLVQPGGSLRLSCAASGFTFSTYGMSWVRQAPGKGLELVAIINHNGGSTFYPDSVKGRFTVSRDNSKNTLYLQMNSLRAEDTAVYYCARDPRHDGYFFDYWGQGTLVTVSS
VL: DIQMTQSPSSLSASVGDRVTITCRASEDIYDRLAWYQQKPGKAPNLLVSGATSLESGVPSRFSGSGSGKDYTLTISSLQPEDFATYYCQQYWSVPWTFGGGTKVEIKR
notes: Humanized, human IgG4/kappa; also called VH6666/VL6667
binds: [1] | human IL-17A [2] | human IL-17A [3]

B8: PP10766 (antibody, human IgG4 S228P, kappa, V domains shown)
VH: EVQLVESGGGVVQPGRSLRLSCAASGFTFSTYGMSWVRQAPGKGLELVAIINHNGGSTFYPDSVKGRFTISRDNSKNTLYLQMNSLRAEDTAVYYCARDPRHDGYFFDYWGQGTLVTVSS
VL: DIQMTQSPSSLSASVGDRVTITCQASEDIYDRLAWYQQKPGKAPKLLISGATSLETGVPSRFSGSGSGTDYTFTISSLQPEDIATYYCQQYWSVPWTFGGGTKVEIKR
notes: Humanized, human IgG4/kappa; also called VH6667/VL6665
binds: [1] | human IL-17A [2] | human IL-17A [3]

B9: PP10767 (antibody, human IgG4 S228P, kappa, V domains shown)
VH: EVQLVESGGGVVQPGRSLRLSCAASGFTFSTYGMSWVRQAPGKGLELVAIINHNGGSTFYPDSVKGRFTISRDNSKNTLYLQMNSLRAEDTAVYYCARDPRHDGYFFDYWGQGTLVTVSS
VL: DIQMTQSPSSLSASVGDRVTITCQASEDIYDRLAWYQQKPGKAPKLLISGATSLETGVPSRFSGSGSGKDYTFTISSLQPEDIATYYCQQYWSVPWTFGGGTKVEIKR
notes: Humanized, human IgG4/kappa; also called VH6667/VL6666
binds: [1] | human IL-17A [2] | human IL-17A [3]

B10: PP10768 (antibody, human IgG4 S228P, kappa, V domains shown)
VH: EVQLVESGGGVVQPGRSLRLSCAASGFTFSTYGMSWVRQAPGKGLELVAIINHNGGSTFYPDSVKGRFTISRDNSKNTLYLQMNSLRAEDTAVYYCARDPRHDGYFFDYWGQGTLVTVSS
VL: DIQMTQSPSSLSASVGDRVTITCRASEDIYDRLAWYQQKPGKAPNLLVSGATSLESGVPSRFSGSGSGKDYTLTISSLQPEDFATYYCQQYWSVPWTFGGGTKVEIKR
notes: Humanized, human IgG4/kappa; also called VH6667/VL6667
binds: [1] | human IL-17A [2] | human IL-17A [3]
